PubChem BioAssay AID504784 – Drosophila RNAi Screening Center | 2011
The deposit covers about 17,000 reagents; below is a random part of those that have a named target and a result. 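Each column is one replicate's B-score; the combined score over replicates was not deposited, so single values may mislead.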 A plus sign joins genes that one reagent is predicted to hit. Further read-outs or replicates are left out here.

Assay: 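Search for regulators of lipid droplet storage in oleate-fed fly cells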 (primary screen)
Cell system: Drosophila Kc167 embryonic cells
Reagents: long dsRNA against Drosophila genes, about 250 ng dsRNA per well
Time to read-out: 4 days
Treatment: cells fed 400 µM oleic acid bound to BSA
Read-out: 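Microscope images give a droplet-to-nucleus area ratio, taken as log and converted to a screen-wide B-score; higher values mean greater lipid storage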
Reading the numbers: droplet/nuclear area B-score: higher = more stored lipid (overstorage)

no.	predicted target	dsRNA	droplet/nuclear area B-score, replicate 1
1	CG5854	DRSC15894	-0.56
2	RhoBTB	DRSC11877	0.587
3	Ggamma30A	DRSC02715	-0.0125
4	Ggamma30A	DRSC03331	1.63
5	gom	DRSC04690	-1.15
6	Obp56c	DRSC06552	0.504
7	Obp56c	DRSC22325	0.129
8	CG9135	DRSC03144	0.562
9	Fpps	DRSC07429	-0.113
10	Or33a	DRSC03386	0.00152
11	CG7465	DRSC08592	0.844
12	CG7465	DRSC22320	-0.587
13	CG12486 (retired record)	DRSC09888	-0.211
14	Diedel	DRSC14317	0.211
15	CG6059	DRSC15958	1.75
16	RtcB	DRSC03280	0.0194
17	CG13502	DRSC04147	0.367
18	Ace	DRSC14100	-0.858
19	CG33695 + cana	DRSC01163	2.55
20	CG33695 + cana	DRSC03503	-0.067
21	CG30083	DRSC05572	0.266
22	CG5377	DRSC15783	-0.819
23	ifc	DRSC03549	-0.652
24	EMC2B + EMC2A	DRSC15241	1.44
25	sv	DRSC17221	-0.00805
26	CG17549	DRSC02625	-2.86
27	bip1	DRSC11327	0.893
28	PGRP-SB1	DRSC11090	0.843
29	CG1850	DRSC06762	-1.48
30	His2B:CG33894 + His2B:CG33872 + His2B:CG33902 + 20 more	DRSC21265	0.662
31	Fatp3	DRSC04366	1.34
32	CG7377	DRSC10830	-0.00168
33	Ho	DRSC14939	3.84
34	CG33160	DRSC08197	0.885
35	gogo	DRSC10070	0.945
36	gogo	DRSC10071	0.111
37	CG12448	DRSC01967	0.273
38	Trm7-32	DRSC15741	0.276
39	Tsp42El	DRSC06186	-1.94
40	CG13392	DRSC02262	0.00702
41	Tusp	DRSC15838	-1.29
42	vig2	DRSC14402	-0.202
43	mats	DRSC13562	1.64
44	mats	DRSC14702	-0.862
45	CG6028	DRSC15951	-1.38
46	Aprt	DRSC08139	-0.188
47	Lcp65Ag3 + Lcp65Ag2 + Lcp65Ag1	DRSC11214	-1.84
48	Lcp65Ag3 + Lcp65Ag2 + Lcp65Ag1	DRSC11215	-0.102
49	GstT1	DRSC06243	-0.283
50	CG14408	DRSC19595	-0.0187

The list goes on, starting with the last 2 of the part before.
no.	predicted target	dsRNA	droplet/nuclear area B-score, replicate 1
49	GstT1	DRSC06243	-0.283
50	CG14408	DRSC19595	-0.0187
51	CG11658	DRSC09852	1.19
52	Gr59f	DRSC04499	-0.192
53	Ir93a	DRSC15212	-1.8
54	Ir93a	DRSC15213	-0.399
55	mRpS18B	DRSC02107	-1.08
56	CG42375 + CG9288	DRSC16468	1.89
57	Vti1a	DRSC08563	-0.0246
58	CG11583	DRSC08202	0.992
59	cag	DRSC07587	-2.96
60	CG12511	DRSC02171	0.695
61	Oatp74D	DRSC09491	0.364
62	Oatp74D	DRSC10883	0.243
63	UGP + PGRP-LF	DRSC10418	-0.843
64	mat	DRSC08376	-0.102
65	mat	DRSC22841	-0.266
66	Shmt	DRSC18264	0.468
67	Fcp1	DRSC04121	-0.419
68	Rab1	DRSC16808	-0.388
69	CR31292	DRSC13120	-0.0724
70	CG17568	DRSC02628	-0.518
71	CG15282	DRSC22620	-3.7
72	CG15282	DRSC23090	-0.821
73	CG12480	DRSC19460	1.03
74	ssp	DRSC10252	1.28
75	Ir67c	DRSC22097	-1.52
76	CG16868	DRSC06633	0.85
77	CG3253	DRSC04350	0.0722
78	tut	DRSC08909	-0.835
79	CG32544	DRSC20033	0.0293
80	Coa7	DRSC20967	1.3
81	in	DRSC11888	-2.04
82	Vdup1	DRSC08586	-0.627
83	sls	DRSC08528	0.0354
84	sls	DRSC08540	0.389
85	sls	DRSC08670	0.828
